A short description of this test: qHTS Assay to Find Inhibitors of Chronic Active B-Cell Receptor Signaling. The following applies: ABC-DLBCL IkBa-CBG/CBR reporter, luminescence ratio (green luciferase fused to IkBa over red control in TMD8 lymphoma cells), 4 h. The method, boiled down:
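Compounds up to 46 uM were incubated four hours with TMD8 cells whose green CBG68 luciferase is fused to IkappaBalpha; red CBR luminescence normalised the signal, and concentration-effect curves were fitted to fusion, red and ratio data.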
Background: In qHTS, concentration-response curves come from the screen itself.

[1] abbreviates: measured here: CBR red luminescence, cell number.

The list shows a part of the results. Further columns of the screen follow, without active or inactive calls. Compounds called inactive in the main read-out are mostly missing here. Words in brackets tell the shape of the fitted curve; partial curves, single points and poor fits give uncertain potencies.

For orientation: AC50 means the concentration giving half of the maximal activity seen. On to `CCOC(=O)c1cnc(-c2ccccc2)nc1N`, for which, under setting [1], the concentration at half-maximal activity (AC50) was 8.2 µM [falling, partial curve, poor fit].

For the compound `Cc1cccc(-c2noc(CCc3ccccc3)n2)c1`, the half-maximal activity concentration (AC50) under setting [1] was 1.41 µM [rising, partial curve, poor fit].

For `CSc1ccc(C(=O)N2CCc3ccc(NC(=O)c4ccccn4)cc3C2)cc1`, the AC50 under setting [1] was 35.5 µM [falling, single point].

For the compound `O=C(CN1CCOCC1)Nc1nc2ccc(Cl)cc2s1`, under setting [1], the AC50 was 3.98 µM [falling, single point].

`COc1cc2c(cc1OC)CN(c1nc(-c3cccnc3)nc3ccccc13)CC2`: the AC50 under setting [1] is 35.5 µM [falling, partial curve, poor fit].

For the compound `O=C(c1ccc2ccccc2c1)C1CCCN(S(=O)(=O)c2cccnc2)C1` (stereo unspecified), under setting [1], the concentration at half-maximal activity (AC50) was 22.4 µM [falling, single point].

Consider `Cc1ccc2cccc(OCC(=O)Nc3cccc(S(=O)(=O)N4CCCC4)c3)c2n1`, for which the concentration at half-maximal activity (AC50) under setting [1] is 18.4 µM [falling, single point].

On to `CCn1cc([N+](=O)[O-])c(C(=O)N2N=C(c3ccc(OC)cc3OC)CC2c2ccccc2O)n1` (stereo unspecified), for which the half-maximal activity concentration (AC50) under setting [1] was 32.6 µM [falling, partial curve, poor fit].

Regarding `O=C(CSC1=NS(=O)(=O)c2ccccc21)Nc1ccccc1`, the half-maximal activity concentration (AC50) under setting [1] was 0.0231 µM [falling, full curve, poor fit].

For `CCN(CC)CC(O)COCCC12CC3CC(CC(C3)C1)C2` (stereo unspecified), under setting [1], the AC50 was 20.6 µM [falling, single point].

Turning to `Cc1ccccc1NC(=O)Cn1nnc2sc3c(c2c1=O)CC(C)(C)OC3`, under setting [1], the half-maximal activity concentration (AC50) is 0.562 µM [rising, full curve, poor fit].

Consider `CCOC(=O)c1c(NC(=O)CSc2nncs2)sc(C)c1-c1ccccc1`, for which the AC50 under setting [1] was 25.9 µM [falling, single point].

For `Cc1cccc(CNc2ncnc3ccc(-c4ccccc4Cl)cc23)c1`, under setting [1], the concentration at half-maximal activity (AC50) was 16.4 µM [falling, single point].

With `COc1ccc(CN2C(=O)c3ccccc3C2C(=O)NCc2cccnc2)c(OC)c1` (stereo unspecified), under setting [1], the half-maximal activity concentration (AC50) is 35.5 µM [rising, single point].

For the compound `Cc1cc(C)n(-c2ncnc3c2oc2ccccc23)n1`, the AC50 under setting [1] was 3.55 µM [rising, single point].

In the case of `Nc1cc(Nc2ccc(Br)cc2)nc(N)n1`, the half-maximal activity concentration (AC50) under setting [1] is 3.55 µM [falling, single point].

Take `CCCCCOC(=O)C1=C(C)NC(=O)NC1c1ccc([N+](=O)[O-])cc1` (stereo unspecified): the half-maximal activity concentration (AC50) under setting [1] was 20 µM [falling, partial curve, poor fit].

As to `c1ccc2c(c1)CNc1ccccc1C2`, under setting [1], the concentration at half-maximal activity (AC50) was 0.13 µM [rising, full curve, poor fit].

Consider `Cc1cccc(C)c1OCC(=O)NNC(=O)CCCn1c(=O)oc2ccccc21`, for which, under setting [1], the AC50 was 6.51 µM [rising, partial curve, poor fit].

For the compound `CCN(CC)S(=O)(=O)c1ccc(NN=C2CCN(C(C)C)CC2)c([N+](=O)[O-])c1`, under setting [1], the AC50 is 5.62 µM [falling, full curve].

For the compound `Cc1cc(C)cc(NC(=O)Nc2ccc(NC(=O)c3ccccc3O)cc2)c1`, the half-maximal activity concentration (AC50) under setting [1] was 31.6 µM [rising, single point].

For `O=C(Nc1cccnc1Cl)c1cc(-c2ccc(O)cc2)on1`, under setting [1], the AC50 is 5.01 µM [falling, partial curve, poor fit].

`O=C(O)/C=C/C(=O)Nc1ccc(Cl)c(C(=O)O)c1`: the AC50 under setting [1] is 15.8 µM [falling, single point].

As for `Cc1ccc2c(c1)C(O)(CC(=O)/C=C/C=C/c1ccccc1)C(=O)N2` (stereo unspecified), the AC50 under setting [1] was 17.8 µM [falling, single point].

As for `CC(=O)Nc1cccc(-c2csc(Nc3cc(C)ccn3)n2)c1`, the half-maximal activity concentration (AC50) under setting [1] is 0.447 µM [falling, full curve, poor fit].

As for `COc1ccccc1CCNC(=O)C(=O)c1cn(CC(=O)N2CCOCC2)c2ccccc12`, the AC50 under setting [1] was 2.24 µM [falling, partial curve, poor fit].

Turning to `CC(=O)NC1C2CN3CCN(C2)CC1(Cc1ccccc1)C3` (stereo unspecified), the half-maximal activity concentration (AC50) under setting [1] is 18.4 µM [rising, single point].

Regarding `CCCCNC(=O)c1ccccc1NC(=O)c1ccc2c(c1)OCO2`, the AC50 under setting [1] is 35.5 µM [falling, single point].

As to `CCOc1cccc(C(=O)Nc2ccc(N(CC)CC)cc2)c1`, under setting [1], the AC50 was 1 µM [falling, partial curve, poor fit].

As for `O=C(C[C@H]1C[C@H](C(=O)N2CCOCC2)[C@@]2(CCC3CCCC3)c3[nH]c4cc(-c5ccco5)ccc4c3CCN2C1=O)NCCc1ccccn1`, under setting [1], the half-maximal activity concentration (AC50) is 18.4 µM [falling, partial curve, poor fit].

Take `COc1ccc(C(=O)Oc2ccc(/C=N/NC(=O)c3ccccc3OC)cc2[N+](=O)[O-])cc1`: the AC50 under setting [1] was 1.3 µM [falling, partial curve, poor fit].

For the compound `Cc1cc(NC(=O)CSc2ccc(-c3ccc(Br)cc3)nn2)no1`, the AC50 under setting [1] was 15.8 µM [rising, single point].

In the case of `FC(F)Oc1ccc(N=C2SCC3CCCCN23)cc1` (stereo unspecified), the AC50 under setting [1] is 3.55 µM [rising, full curve].

Regarding `COc1ccc(C(=O)Nc2cc(Cl)cc(Cl)c2)c(OC)n1`, the AC50 under setting [1] was 15.8 µM [rising, partial curve, poor fit].

On to `CS/C(=C/[N+](=O)[O-])Nc1cccc2c1C(C)CC2(C)C` (stereo unspecified), for which, under setting [1], the half-maximal activity concentration (AC50) is 14.1 µM [falling, single point].

As to `COc1ccc(/C=C/C(=O)NC(=S)Nc2ccc(S(=O)(=O)Nc3ccc(OC)nn3)cc2)cc1`, under setting [1], the AC50 is 20.6 µM [rising, single point].

In the case of `Brc1ccc2nc3c(n2c1)CCCC3`, the AC50 under setting [1] is 12.6 µM [rising, partial curve].

As for `CC(=O)c1cccc(CN2CCC(C(=O)Nc3ccc(-c4cccc(C)c4)cc3)CC2)c1`, the AC50 under setting [1] is 25.1 µM [falling, single point] and the concentration at half-maximal activity (AC50) (measured here: IkBa-CBG green luminescence) was 22.4 µM [falling, partial curve, poor fit].

On to `Cc1ccccc1OCC(=O)Nc1ccc(N2CCN(C(=O)c3ccco3)CC2)cc1`, for which the AC50 under setting [1] was 35.5 µM [falling, single point].

As for `CC(=O)N1CCN(c2ccc(NC(=O)c3cccc(OCc4ccccc4)c3)cc2)CC1`, the AC50 under setting [1] is 2.24 µM [falling, partial curve, poor fit].

These data come from PubChem BioAssay AID493014 (National Center for Advancing Translational Sciences (NCATS), 2011).
